# This is one part of the list. The data scatter; read single values as rough.
# Chains of the proteins cited; added tags and fusions are not shown. Lines headed by an entry give the natural chain unless they say otherwise; changes in a name come on top.
# UniProt Q9Y5T5, whole entry, looked up: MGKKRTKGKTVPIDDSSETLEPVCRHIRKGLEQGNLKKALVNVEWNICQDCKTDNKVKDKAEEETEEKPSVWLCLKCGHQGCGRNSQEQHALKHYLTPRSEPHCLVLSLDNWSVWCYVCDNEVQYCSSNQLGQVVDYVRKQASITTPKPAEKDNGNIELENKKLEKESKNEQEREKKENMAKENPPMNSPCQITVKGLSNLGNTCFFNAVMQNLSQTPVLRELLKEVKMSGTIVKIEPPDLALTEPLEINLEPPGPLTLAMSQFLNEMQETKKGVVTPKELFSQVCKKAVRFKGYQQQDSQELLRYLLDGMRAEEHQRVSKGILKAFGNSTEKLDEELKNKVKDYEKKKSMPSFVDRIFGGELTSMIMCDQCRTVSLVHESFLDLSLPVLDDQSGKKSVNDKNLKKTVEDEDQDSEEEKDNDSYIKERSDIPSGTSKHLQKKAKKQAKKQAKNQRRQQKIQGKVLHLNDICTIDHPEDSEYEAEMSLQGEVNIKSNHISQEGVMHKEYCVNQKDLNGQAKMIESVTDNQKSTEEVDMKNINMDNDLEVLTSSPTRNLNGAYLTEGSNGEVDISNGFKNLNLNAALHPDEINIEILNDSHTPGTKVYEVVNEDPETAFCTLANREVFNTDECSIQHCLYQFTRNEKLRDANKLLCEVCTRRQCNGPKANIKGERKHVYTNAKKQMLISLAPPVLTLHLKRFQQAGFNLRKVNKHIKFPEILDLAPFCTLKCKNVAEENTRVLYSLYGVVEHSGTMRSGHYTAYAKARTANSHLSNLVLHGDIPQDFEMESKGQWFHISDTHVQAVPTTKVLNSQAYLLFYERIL
# UniProt Q9P2Y5: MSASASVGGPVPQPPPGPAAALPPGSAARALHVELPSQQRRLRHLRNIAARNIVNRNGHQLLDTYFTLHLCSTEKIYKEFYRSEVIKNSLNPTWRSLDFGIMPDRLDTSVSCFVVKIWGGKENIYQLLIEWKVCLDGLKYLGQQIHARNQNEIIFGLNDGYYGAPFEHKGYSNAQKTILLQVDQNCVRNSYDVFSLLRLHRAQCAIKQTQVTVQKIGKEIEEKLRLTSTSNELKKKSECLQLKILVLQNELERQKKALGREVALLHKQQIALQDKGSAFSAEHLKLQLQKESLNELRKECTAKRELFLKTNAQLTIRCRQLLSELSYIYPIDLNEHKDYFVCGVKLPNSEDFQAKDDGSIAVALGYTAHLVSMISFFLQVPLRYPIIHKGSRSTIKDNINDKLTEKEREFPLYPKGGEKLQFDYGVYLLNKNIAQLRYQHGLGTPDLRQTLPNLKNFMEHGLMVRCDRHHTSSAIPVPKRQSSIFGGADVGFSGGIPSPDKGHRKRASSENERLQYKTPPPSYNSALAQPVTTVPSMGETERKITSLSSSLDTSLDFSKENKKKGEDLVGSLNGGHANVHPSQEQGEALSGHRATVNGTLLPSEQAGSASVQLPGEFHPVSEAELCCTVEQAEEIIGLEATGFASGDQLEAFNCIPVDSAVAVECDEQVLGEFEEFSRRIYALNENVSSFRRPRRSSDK
# UniProt Q15853: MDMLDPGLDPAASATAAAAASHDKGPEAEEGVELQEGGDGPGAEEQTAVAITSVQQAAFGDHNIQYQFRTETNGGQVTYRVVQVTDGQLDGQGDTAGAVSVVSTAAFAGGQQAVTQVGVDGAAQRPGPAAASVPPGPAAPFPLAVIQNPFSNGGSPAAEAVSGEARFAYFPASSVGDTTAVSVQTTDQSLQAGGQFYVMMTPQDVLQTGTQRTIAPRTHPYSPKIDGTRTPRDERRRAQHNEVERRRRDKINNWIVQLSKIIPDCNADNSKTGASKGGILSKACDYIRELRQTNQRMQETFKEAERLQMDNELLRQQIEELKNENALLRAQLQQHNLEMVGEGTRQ
# UniProt Q96AX1: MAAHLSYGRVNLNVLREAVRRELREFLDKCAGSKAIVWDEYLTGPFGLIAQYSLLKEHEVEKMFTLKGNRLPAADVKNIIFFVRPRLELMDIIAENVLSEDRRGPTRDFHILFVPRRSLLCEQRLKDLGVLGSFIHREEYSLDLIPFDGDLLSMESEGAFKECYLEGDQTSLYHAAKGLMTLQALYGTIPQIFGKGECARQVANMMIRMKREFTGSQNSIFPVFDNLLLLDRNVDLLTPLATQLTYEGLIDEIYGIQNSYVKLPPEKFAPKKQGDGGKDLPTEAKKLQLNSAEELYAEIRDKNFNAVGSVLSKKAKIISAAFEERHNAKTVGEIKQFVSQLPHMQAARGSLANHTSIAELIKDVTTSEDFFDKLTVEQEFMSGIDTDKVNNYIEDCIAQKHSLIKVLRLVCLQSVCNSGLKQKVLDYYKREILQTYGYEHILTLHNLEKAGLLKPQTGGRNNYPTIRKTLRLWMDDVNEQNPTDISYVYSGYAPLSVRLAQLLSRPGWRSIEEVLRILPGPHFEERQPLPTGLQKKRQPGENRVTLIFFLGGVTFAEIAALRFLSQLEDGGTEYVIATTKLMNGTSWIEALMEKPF
# UniProt Q4G0F5, whole entry, looked up: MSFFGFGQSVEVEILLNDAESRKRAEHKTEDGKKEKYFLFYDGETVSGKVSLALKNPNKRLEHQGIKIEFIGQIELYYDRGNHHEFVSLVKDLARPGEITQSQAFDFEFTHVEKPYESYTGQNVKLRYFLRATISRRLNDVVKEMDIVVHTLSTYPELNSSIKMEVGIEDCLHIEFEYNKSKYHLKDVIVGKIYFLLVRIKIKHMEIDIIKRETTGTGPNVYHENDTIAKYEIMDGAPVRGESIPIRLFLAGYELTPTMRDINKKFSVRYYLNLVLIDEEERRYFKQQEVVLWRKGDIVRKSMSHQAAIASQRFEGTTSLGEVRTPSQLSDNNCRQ
# UniProt Q70CQ2: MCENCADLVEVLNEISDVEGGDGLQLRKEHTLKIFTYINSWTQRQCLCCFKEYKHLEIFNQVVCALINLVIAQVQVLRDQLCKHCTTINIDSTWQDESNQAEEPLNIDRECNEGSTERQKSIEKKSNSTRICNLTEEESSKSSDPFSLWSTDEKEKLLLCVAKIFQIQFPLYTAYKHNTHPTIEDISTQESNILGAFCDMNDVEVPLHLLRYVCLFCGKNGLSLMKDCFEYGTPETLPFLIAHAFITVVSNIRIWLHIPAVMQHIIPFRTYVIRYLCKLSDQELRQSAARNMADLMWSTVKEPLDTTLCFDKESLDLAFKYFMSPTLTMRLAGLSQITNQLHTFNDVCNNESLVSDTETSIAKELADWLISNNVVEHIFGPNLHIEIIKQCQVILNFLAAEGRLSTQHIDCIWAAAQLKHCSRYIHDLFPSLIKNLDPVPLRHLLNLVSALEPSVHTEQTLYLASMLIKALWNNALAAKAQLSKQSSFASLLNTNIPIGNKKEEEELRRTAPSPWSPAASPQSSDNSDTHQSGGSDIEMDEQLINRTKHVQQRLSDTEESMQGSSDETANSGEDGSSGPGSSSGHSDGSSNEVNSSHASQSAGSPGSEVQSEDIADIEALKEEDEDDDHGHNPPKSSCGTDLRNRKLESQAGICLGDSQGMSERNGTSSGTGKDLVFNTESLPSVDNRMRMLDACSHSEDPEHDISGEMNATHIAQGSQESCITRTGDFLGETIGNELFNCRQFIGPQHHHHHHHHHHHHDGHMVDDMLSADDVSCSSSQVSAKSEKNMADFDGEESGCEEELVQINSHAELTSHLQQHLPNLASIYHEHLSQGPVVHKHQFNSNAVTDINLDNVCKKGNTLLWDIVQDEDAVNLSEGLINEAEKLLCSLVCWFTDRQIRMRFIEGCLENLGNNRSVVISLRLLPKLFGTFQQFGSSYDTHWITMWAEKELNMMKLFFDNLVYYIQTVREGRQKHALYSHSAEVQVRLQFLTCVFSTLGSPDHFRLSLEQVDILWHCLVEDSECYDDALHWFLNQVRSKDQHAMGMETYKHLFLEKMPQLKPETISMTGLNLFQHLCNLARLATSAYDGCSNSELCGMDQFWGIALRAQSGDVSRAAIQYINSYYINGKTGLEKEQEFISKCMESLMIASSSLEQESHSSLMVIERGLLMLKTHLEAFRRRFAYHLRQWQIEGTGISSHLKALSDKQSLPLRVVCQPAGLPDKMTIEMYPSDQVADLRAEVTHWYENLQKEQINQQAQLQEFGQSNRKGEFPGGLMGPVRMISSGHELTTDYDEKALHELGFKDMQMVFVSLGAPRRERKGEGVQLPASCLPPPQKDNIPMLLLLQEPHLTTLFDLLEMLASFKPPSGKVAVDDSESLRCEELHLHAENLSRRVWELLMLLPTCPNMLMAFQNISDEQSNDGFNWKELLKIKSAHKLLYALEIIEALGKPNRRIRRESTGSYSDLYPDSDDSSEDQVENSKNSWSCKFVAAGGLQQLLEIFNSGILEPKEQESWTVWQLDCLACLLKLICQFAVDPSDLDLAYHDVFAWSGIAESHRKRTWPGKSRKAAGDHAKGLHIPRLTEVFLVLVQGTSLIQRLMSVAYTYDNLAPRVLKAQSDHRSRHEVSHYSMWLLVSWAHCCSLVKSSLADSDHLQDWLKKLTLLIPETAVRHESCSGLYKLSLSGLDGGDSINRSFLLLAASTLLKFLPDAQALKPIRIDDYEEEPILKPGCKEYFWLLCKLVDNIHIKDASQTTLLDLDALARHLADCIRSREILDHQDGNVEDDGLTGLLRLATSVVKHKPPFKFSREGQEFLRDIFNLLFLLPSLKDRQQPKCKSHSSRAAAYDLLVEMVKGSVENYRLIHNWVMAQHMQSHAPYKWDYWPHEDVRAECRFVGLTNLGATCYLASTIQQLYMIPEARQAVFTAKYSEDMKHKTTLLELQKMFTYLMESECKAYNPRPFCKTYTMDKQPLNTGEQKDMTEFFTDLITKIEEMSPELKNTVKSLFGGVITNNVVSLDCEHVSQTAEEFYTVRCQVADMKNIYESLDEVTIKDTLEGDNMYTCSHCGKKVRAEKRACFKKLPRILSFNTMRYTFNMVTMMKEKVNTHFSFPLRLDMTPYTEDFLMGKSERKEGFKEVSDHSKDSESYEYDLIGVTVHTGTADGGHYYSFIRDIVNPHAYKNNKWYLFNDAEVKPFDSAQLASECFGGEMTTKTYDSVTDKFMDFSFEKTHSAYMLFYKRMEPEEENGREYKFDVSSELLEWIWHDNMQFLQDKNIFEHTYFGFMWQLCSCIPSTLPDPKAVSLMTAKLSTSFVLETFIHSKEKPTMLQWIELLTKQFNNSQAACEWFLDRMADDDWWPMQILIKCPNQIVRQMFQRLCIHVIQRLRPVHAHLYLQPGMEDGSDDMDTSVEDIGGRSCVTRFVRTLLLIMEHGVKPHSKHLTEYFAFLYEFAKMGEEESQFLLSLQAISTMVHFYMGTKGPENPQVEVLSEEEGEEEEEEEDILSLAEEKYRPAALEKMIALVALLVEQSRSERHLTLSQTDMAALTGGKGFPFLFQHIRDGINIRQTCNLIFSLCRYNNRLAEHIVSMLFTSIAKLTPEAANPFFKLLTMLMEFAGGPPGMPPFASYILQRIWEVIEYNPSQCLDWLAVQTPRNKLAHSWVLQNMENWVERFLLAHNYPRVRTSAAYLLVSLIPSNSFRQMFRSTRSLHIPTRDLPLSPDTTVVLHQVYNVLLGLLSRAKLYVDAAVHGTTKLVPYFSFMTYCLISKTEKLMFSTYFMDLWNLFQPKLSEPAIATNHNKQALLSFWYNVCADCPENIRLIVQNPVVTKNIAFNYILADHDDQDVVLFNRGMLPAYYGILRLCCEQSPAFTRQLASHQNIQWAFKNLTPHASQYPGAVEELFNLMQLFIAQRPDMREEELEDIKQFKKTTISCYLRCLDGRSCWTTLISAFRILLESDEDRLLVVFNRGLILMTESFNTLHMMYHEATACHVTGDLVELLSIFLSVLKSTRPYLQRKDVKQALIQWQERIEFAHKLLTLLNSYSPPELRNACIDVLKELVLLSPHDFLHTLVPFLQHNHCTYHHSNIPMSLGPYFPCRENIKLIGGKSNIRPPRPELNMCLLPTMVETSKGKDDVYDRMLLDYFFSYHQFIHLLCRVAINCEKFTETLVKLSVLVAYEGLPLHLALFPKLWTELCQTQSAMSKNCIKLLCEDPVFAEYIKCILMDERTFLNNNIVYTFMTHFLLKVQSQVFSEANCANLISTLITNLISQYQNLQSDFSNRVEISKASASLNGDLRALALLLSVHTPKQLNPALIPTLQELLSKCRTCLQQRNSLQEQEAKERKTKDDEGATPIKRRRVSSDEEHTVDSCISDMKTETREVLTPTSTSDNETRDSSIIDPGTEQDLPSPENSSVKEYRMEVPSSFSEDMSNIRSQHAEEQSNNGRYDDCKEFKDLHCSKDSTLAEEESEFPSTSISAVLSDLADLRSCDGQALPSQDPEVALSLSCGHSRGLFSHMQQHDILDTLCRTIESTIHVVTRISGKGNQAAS
# What was measured:
# [1] = compound: ClCC(=O)N[C@@H]1CCCc2ccccc12; test: log2 mean competition ratio of IA-DTB cysteine labelling (DMSO/compound) (log2 ratio); higher = stronger cysteine engagement by compound; details: treatment time: 4 h, cell line lysate: HEK293T
# Description: (§1)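 IA-DTB competitive cysteine chemoproteomics in HEK293T RIPA lysate. Lysates were treated with compound 29 or 30 at 50 or 200 µM for 4 h, then IA-DTB (500 µM, 1 h), trypsin-digested, NeutrAvidin-enriched and analysed by diaPASEF. Competition ratio = intensity DMSO / intensity compound (n=4 treated, n=64 DMSO); binding: mean log2 CR ≥ 1 and p ≤ 0.05 plus QC filters. Target is the cysteine site.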
# [2] = compound: ClCC(=O)N[C@H]1CCCc2ccccc12; test: as above; details: treatment time: 4 h, cell line lysate: HEK293T
# Description: as §1
Target,log2 mean competition ratio ([1]; 50 µM),log2 mean competition ratio ([1]; 200 µM),log2 mean competition ratio ([2]; 50 µM),log2 mean competition ratio ([2]; 200 µM)
USP5 C838,0.0352,-0.226,0.0869,-0.488
USP16 C509 (UniProt Q9Y5T5),-0.0456,-0.166,-0.0446,-0.0912
UVRAG C186 (UniProt Q9P2Y5),0.0091,0.414,-0.235,0.239
UTP20 C1072 (UniProt O75691),-0.026,0.266,-0.207,0.321
VARS1 C917,-0.112,-0.119,-0.24,0.0371
UHRF2 C14 (UniProt Q96PU4),0.076,0.138,-0.348,-0.0818
USF2 C265 (UniProt Q15853),-0.17,0.0565,-0.207,0.453
VPS13C C2440 (UniProt Q709C8),0.142,-0.0686,0.195,-0.231
UQCRC1 C410 (UniProt P31930),-0.149,-0.0458,-0.121,0.0173
USP38 C525 (UniProt Q8NB14),0.129,0.379,-0.369,0.206
UNC45A C488 (UniProt Q9H3U1),-0.0887,0.151,-0.185,0.173
VPS33A C121 (UniProt Q96AX1),-0.0902,0.169,0.115,0.252
USP9X C1771 (UniProt Q93008),-0.333,0.117,-0.00524,0.0193
USP25 C1015 (UniProt Q9UHP3),-0.0866,-0.142,0.589,0.0232
UTP4 C67 (UniProt Q969X6),-0.161,0.00833,0.063,0.0343
VPS26B C334 (UniProt Q4G0F5),-0.156,0.191,-0.253,0.0653
VAC14 C719 (UniProt Q08AM6),,,0.106,0.0572
USP9Y C2294,,,-0.429,-0.0893
URB2 C570 (UniProt Q14146),0.251,0.729,0.339,0.653
USP34 C111 (UniProt Q70CQ2),,,-0.259,0.0868
VARS1 C381,-0.00975,0.0727,0.037,-0.267
UVRAG C239 (UniProt Q9P2Y5),,,0.415,
USP22 C171 (UniProt Q9UPT9),0.13,0.214,0.046,0.138

# Limited to log2 mean competition ratio ([1]; 50 µM), log2 mean competition ratio ([2]; 50 µM) and log2 mean competition ratio ([2]; 200 µM), for some of the entries so far:
Target | log2 mean competition ratio ([1]; 50 µM) | log2 mean competition ratio ([2]; 50 µM) | log2 mean competition ratio ([2]; 200 µM)
UQCRC1 C410 (UniProt P31930) | -0.149 | -0.121 | 0.0173
USP38 C525 (UniProt Q8NB14) | 0.129 | -0.369 | 0.206

# — the supplement of paper PMC11732987, “Enantioselective OTUD7B fragment discovery through chemoproteomics screening and high-throughput optimisation” (Communications Chemistry, 2025)
